No constants are given. Whether binding was seen depends on the method and setting. Binding seen in cells or lysates may run through a third protein. Some entries that bind do so weakly or less than the wild type.
Molecular target: synthetic Abeta42 peptide (1‐42) (human) (UniProt P05067)
Assay: co-IP; 500 µM synthetic Abeta42 added to pre‐cleared fly head extract with Protein G magnetic beads coupled to antibody 6E10; 4 h, 4°C; Droj2 detected with DnaJA1‐specific antibody; only the target purified

The chains behind the UniProt entries cited, without tags or fusion partners. Residues count along the entry.
UniProt P05067, residues 672-713: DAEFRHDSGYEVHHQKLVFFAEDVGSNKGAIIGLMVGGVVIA
UniProt Q9VFV9: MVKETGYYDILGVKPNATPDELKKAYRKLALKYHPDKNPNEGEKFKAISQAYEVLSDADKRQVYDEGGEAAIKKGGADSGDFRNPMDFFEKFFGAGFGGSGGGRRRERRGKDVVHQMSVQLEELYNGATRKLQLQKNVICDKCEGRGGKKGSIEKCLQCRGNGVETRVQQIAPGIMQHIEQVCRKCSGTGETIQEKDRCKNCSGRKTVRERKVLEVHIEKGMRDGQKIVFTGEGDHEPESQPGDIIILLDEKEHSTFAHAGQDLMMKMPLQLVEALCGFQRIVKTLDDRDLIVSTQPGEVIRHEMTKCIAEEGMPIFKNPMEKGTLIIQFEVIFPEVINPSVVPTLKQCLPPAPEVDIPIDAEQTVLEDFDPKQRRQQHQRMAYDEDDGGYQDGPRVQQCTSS

Droj2 (Drosophila DnaJ‐like‐2), fly homologue of Ydj1/DnaJA1 (from UniProt Q9VFV9 1-403)
binding: binds
